According to PubChem BioAssay AID1671190 (National Center for Advancing Translational Sciences (NCATS), 2021):
The whole screen tested about 580,000 compounds, of which about 6,100 (1.1%) were called active. This list was built around the results that the source calls inconclusive (neither active nor inactive); the mix of calls is not that of the screen. Calls come from the whole dose curve; as a rule, active = well fitted inhibition curve with a large enough effect; inconclusive = small, poorly fitted or top-dose-only effect, or another doubt; inactive = no such curve, though single readings can be large or run the other way. Where the call is inconclusive, the potency comes from a doubtful curve fit.

Amino acid sequences for entries named in this document (tags omitted). A change or cut given only in a name is not applied to a line headed by its entry.
UniProt P18054: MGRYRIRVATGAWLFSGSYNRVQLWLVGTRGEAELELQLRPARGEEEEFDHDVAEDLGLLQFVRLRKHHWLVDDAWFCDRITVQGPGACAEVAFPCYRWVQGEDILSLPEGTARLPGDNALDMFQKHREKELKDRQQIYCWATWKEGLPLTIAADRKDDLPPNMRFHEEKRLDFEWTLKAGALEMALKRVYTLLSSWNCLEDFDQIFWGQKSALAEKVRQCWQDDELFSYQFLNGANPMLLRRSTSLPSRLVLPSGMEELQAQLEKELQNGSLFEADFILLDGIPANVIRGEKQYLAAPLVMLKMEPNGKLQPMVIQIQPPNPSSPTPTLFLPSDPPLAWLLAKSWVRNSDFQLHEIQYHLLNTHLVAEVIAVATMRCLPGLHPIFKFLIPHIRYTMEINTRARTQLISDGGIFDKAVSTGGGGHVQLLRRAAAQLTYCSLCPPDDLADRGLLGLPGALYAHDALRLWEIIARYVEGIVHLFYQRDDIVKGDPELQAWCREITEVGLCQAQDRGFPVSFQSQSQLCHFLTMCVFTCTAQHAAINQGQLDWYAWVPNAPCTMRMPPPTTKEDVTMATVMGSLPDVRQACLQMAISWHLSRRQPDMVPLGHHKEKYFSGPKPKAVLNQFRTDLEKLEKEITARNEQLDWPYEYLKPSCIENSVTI

Target: Polyunsaturated fatty acid lipoxygenase ALOX12 (Homo sapiens) (UniProt P18054)
Test: Primary qHTS assay for inhibitors of human arachidonate 12S-lipoxygenase (ALOX12): Round 2
Conditions: purified 12hLO, xylenol orange hydroperoxide absorbance; activity change, negative = inhibition: at 108 µM (top of the series) unless noted
In short: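 Purified human 12hLO at 150 nM in 25 mM Hepes, 0.01% Triton X-100, pH 7.0, preincubated 15 min at room temperature with compound. Reaction started with 40 uM arachidonic acid, 30 min at room temperature. Hydroperoxide measured by Fe-xylenol orange, 573/405 nm absorbance ratio.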
% is set by controls: 0 for no effect and ±100 for the full control effect; potency is the fitted concentration of half-maximal effect.

| SMILES | Potency | activity change, negative = inhibition |
| --- | --- | --- |
| Oc1ccc2ccccc2c1C=Nc1cc(C(F)(F)F)ccc1N1CCCC1 | inconclusive: 44.7 µM [inhibitor, partial curve, poor fit] | – |
| COc1cc([N+](=O)[O-])ccc1NC(=O)CCCOc1cccc(C)c1 | inconclusive: 28.2 µM [inhibitor, single point] | – |
| CCSc1nnc2n(-c3ccc(OC)cc3)c(=O)c3c4c(sc3n12)CCCC4 | inconclusive: 89.1 µM [inhibitor, single point] | – |
| O=C(NCCCCc1ccccc1)c1nn(-c2ccccc2)nc1CO | inactive | – |
| O=C(Cc1cccc2ccccc12)NC(NC(=S)Nc1ccccc1Cl)C(Cl)(Cl)Cl (stereo unspecified) | inconclusive: 50.1 µM [inhibitor, partial curve, poor fit] | – |
| CCN(CC)CCCOc1ccc(C)cc1Br | inconclusive: 0.355 µM [inhibitor, full curve, poor fit] | – |
| O=C1CC(c2noc(-c3ccc(Cl)cc3)n2)CN1c1ccc(F)cc1 (stereo unspecified) | inconclusive: 10 µM [inhibitor, full curve] | – |
| COc1ccccc1N1CCN(C(=O)c2cc3c(C)nc4ccccc4c3o2)CC1 | inactive | – |
| O=C(Cc1ccccc1F)N1CCC(c2nc3c(nnn3Cc3cccc(Cl)c3)c(=O)[nH]2)CC1 | inconclusive: 28.2 µM [inhibitor, partial curve, poor fit] | – |
| O=C(/C=C/c1cccnc1)c1cccc(O)c1 | active: 8.91 µM | – |
| Cc1ccc(NC(=O)CS(=O)CC(=O)NC(C)CCc2ccco2)cc1Cl (stereo unspecified) | inactive | – |
| CC(=O)n1cc(C2CC(=O)OC3=C2CC(=O)C(C)(C)C3)c2ccccc21 (stereo unspecified) | inconclusive: 56.2 µM [inhibitor, partial curve, poor fit] | – |
| CCC(=O)N1CCc2c(C(=O)NCc3ccncc3)cccc21 | inactive | – |
| CC1(C)CC(=O)C2=C(C1)OC(N)=C(C#N)C2c1cccc(Br)c1 (stereo unspecified) | inconclusive: 126 µM [inhibitor, single point] | – |
| O=C1CCCC2=C1C(c1ccc(Cl)cc1)CC(=O)N2c1ccccc1F (stereo unspecified) | inconclusive: 10 µM [inhibitor, full curve, poor fit] | – |
| O=[N+]([O-])c1cc(CN2CCN(c3ccccc3)CC2)c(O)c2ncccc12 | inconclusive: 25.1 µM [inhibitor, partial curve, poor fit] | – |
| Cc1cc(N2CCN(S(=O)(=O)c3ccc(Cl)c(Cl)c3)CC2)c2ccccc2n1 | inactive | – |
| c1ccc2c(C(c3nnnn3-c3ccc4c(c3)OCCO4)N3CCCC3)ccnc2c1 (stereo unspecified) | inconclusive: 28.2 µM [inhibitor, single point] | – |
| Cc1ccc(-n2ncc3c(NCC(C)C)ncnc32)c(C)c1 | inconclusive: 112 µM [inhibitor, partial curve, poor fit] | – |
| O=c1ccc2cc(S(=O)(=O)Oc3ccc4c(=O)c(-c5ccccc5)coc4c3)ccc2o1 | inconclusive: 39.8 µM [inhibitor, partial curve, poor fit] | – |
| Cc1cc(C)c(S(=O)(=O)N2CCCC(C(=O)NCCC3=CCCCC3)C2)c(C)c1 (stereo unspecified) | inactive | – |
| O=C(NCC1CCCO1)c1ccccc1OCc1ccc(F)cc1 (stereo unspecified) | – | inconclusive: -32.7% [inhibitor] |

| SMILES | Potency | activity change, negative = inhibition |
| --- | --- | --- |
| Cc1ccc(Nc2nc3nonc3[nH]c2=O)cc1Cl | inconclusive: 20 µM [inhibitor, full curve, poor fit] | – |
| COc1ccc(NCc2nnc(SCC(=O)Nc3cc(C)cc(C)c3)o2)cc1 | inconclusive: 31.6 µM [inhibitor, single point] | – |
| O=C(C=NNc1ccccc1)c1ccccc1 | inconclusive: 5.01 µM [inhibitor, partial curve, poor fit] | – |
| CCc1ccc(NC(=O)Cn2cnc3sc(C)c(S(=O)(=O)N4CCN(c5ccccc5OC)CC4)c3c2=O)cc1 | inactive | – |
| CNC(=O)c1c(NC(NC(=O)c2ccco2)C(=O)c2ccc(Cl)cc2)sc2c1CCCC2 (stereo unspecified) | inconclusive: 20 µM [inhibitor, full curve, poor fit] | – |
| Cc1ccccc1CN(c1ccc(C(=O)NCCC2=CCCCC2)cc1)S(C)(=O)=O | inactive | – |
| O=C1NC(=O)C(=Cc2ccco2)S1 | inconclusive: 44.7 µM [inhibitor, partial curve, poor fit] | – |
| CC1(C)CC(NC(=O)C2CCC(CNC(=O)CNC(=O)c3ccccc3)CC2)CC(C)(C)N1 (stereo unspecified) | inactive | – |
| O=C(Nc1nc(-c2ccccc2)cs1)Nc1ccc(F)cc1F | inactive | – |
| COc1ccc(Cl)cc1NC(=O)c1ncoc1-c1ccco1 | inactive | – |
| COc1ccc(CNc2ncc(-c3ccc(F)cc3)n2C)cc1OC | inconclusive: 0.631 µM [inhibitor, full curve, poor fit] | – |
| Clc1cccc(OCCN2CCN(CCOc3cccc(Cl)c3)CC2)c1 | inconclusive: 44.7 µM [inhibitor, partial curve, poor fit] | – |
| Cc1nc(Cl)sc1C(=O)Nc1ccc(Cl)cc1 | inconclusive: 44.7 µM [inhibitor, partial curve, poor fit] | – |
| Oc1ccc2ccccc2c1CN1CC2CCC(CC2)C1 | inconclusive: 35.5 µM [inhibitor, partial curve, poor fit] | – |
| CN1/C(=C\C(=O)CN2CCN(C(c3ccccc3)c3ccccc3)CC2)C(C)(C)c2ccccc21 | active: 10 µM | – |
| NC(N)=S | inconclusive: 39.8 µM [inhibitor, partial curve] | – |
| COc1cccc(Nc2nc(-c3cc4cc(Cl)ccc4oc3=O)cs2)c1 | inactive | – |
| COCCCNC(=O)Nc1ccc(Br)cc1Cl | inconclusive: 89.1 µM [inhibitor, partial curve, poor fit] | – |
| COc1ccc(Nc2nc(-c3cccc(OC)c3)no2)cc1 | inconclusive: 20 µM [inhibitor, full curve] | – |
| CC(=O)Nc1ccc(NC(=O)C(C)OC(=O)c2cccc(S(=O)(=O)N3CCCCC3)c2)cc1 (stereo unspecified) | inconclusive: 56.2 µM [inhibitor, partial curve, poor fit] | – |
| O=C(CCc1cccnc1)N1CC[C@@H](c2ccc3ccccc3c2)[C@H](O)C1 | inactive | – |
| NC(=O)[C@@H]1CCCNc2c(I)cc([N+](=O)[O-])cc2C(=O)N[C@@H](CO)C(=O)NCC(=O)N1 | inconclusive: 44.7 µM [inhibitor, partial curve, poor fit] | – |

| SMILES | Potency | activity change, negative = inhibition |
| --- | --- | --- |
| C=CCN1CCCC(C(=O)OCC)C1 (stereo unspecified) | inactive | – |
| S=c1nc[nH]c2c1sc1nc(N3CCOCC3)c3c(c12)CCCC3 | inconclusive: 14.1 µM [inhibitor, partial curve, poor fit] | – |
| Cc1cc(C(=O)OCC(=O)NCC(F)(F)F)c2ccccc2n1 | inactive | – |
| O=C(CSc1nc2c(c(=O)[nH]1)CN(Cc1ccc3c(c1)OCO3)CC2)Nc1ccc(F)c(F)c1 | inconclusive: 100 µM [inhibitor, partial curve, poor fit] | – |
| C[C@@H]1CCCCO[C@H](CN(C)S(=O)(=O)c2cccs2)[C@@H](C)CN([C@H](C)CO)C(=O)c2cc(NC(=O)Nc3ccc4c(c3)OCO4)ccc2O1 | inactive | – |
| O=C(Nc1ccccc1)c1n[nH]c(Cn2cncn2)n1 | inconclusive: 10 µM [inhibitor, full curve, poor fit] | – |
| CN(C)c1ncc2nc(-c3ccccc3)c(=O)n(C3CC3)c2n1 | inconclusive: 39.8 µM [inhibitor, partial curve, poor fit] | – |
| CC(C)CNC(=O)Cn1ccc2cc(Cl)ccc21 | inactive | – |
| CCOc1ccccc1C(=O)N/N=C/c1cccc2cccnc12 | inactive | – |
| CCOC(=O)c1oc2cccc(O)c2c1C | inconclusive: 39.8 µM [inhibitor, partial curve, poor fit] | – |
| Cc1ccc(-c2nnc(N3CCN(C(=O)c4cccs4)CC3)c3ccccc23)cc1 | inconclusive: 112 µM [inhibitor, single point] | – |
| CC(C)OCCCNC(=O)CC1CCCC1 | inconclusive: 44.7 µM [inhibitor, partial curve, poor fit] | – |
| O=C(Nc1ccc(F)c(Cl)c1)N1CCC(CN2CCc3ccccc3C2)CC1 | inconclusive: 112 µM [inhibitor, partial curve, poor fit] | – |
| CCN(Cc1noc(C2CCC2)n1)C(=O)CC1C(=O)NCCN1CC(C)C (stereo unspecified) | inconclusive: 6.31 µM [inhibitor, full curve, poor fit] | – |
| Cc1ccc(OCCN)cc1C | inactive | – |
| O[C@@H]1C[C@@H](c2nnc3n2CCN(Cc2ccc4c(c2)CCO4)C3)N(Cc2cccnc2)C1 | inactive | – |
| Cc1ccc(N=C2S/C(=C\c3cn(CC(=O)O)c4ccccc34)C(=O)N2C)cc1 | inconclusive: 50.1 µM [inhibitor, partial curve, poor fit] | – |
| CC1CCc2nc3sc4c(c3c(-c3ccc(Cl)cc3)c2C1)CCC4 (stereo unspecified) | inconclusive: 89.1 µM [inhibitor, single point] | – |
| C=CCNc1nc(N)c(C(=C(C#N)C#N)c2ccc(Br)cc2)s1 | inconclusive: 11.2 µM [inhibitor, full curve, poor fit] | – |
| CN(C)CCN(C(=O)C1CCN(S(=O)(=O)c2cccs2)CC1)c1nc2ccccc2s1 | inconclusive: 50.1 µM [inhibitor, partial curve, poor fit] | – |
| Cc1ccccc1S(=O)(=O)N1C[C@H]2[C@H]3C(=O)N(c4ccccc4)C(=O)[C@H]3CC(=O)[C@H]2[C@@H]1c1ccc(Cl)cc1 | inconclusive: 100 µM [inhibitor, single point] | – |
| COc1ccccc1-c1cc(-c2ccccc2)nc(SCC(=O)O)c1C#N | inconclusive: 0.282 µM [inhibitor, full curve, poor fit] | – |
